Measurements reported in article PMC5548489.
No constants are given. Whether binding was seen depends on the method and setting. In cells and extracts the contact can be indirect. A yes stands for co-enrichment or nearness to the bait. Other partners may have been found.

By UniProt entry, the sequences of proteins in these tests, tags left out.
UniProt P03372: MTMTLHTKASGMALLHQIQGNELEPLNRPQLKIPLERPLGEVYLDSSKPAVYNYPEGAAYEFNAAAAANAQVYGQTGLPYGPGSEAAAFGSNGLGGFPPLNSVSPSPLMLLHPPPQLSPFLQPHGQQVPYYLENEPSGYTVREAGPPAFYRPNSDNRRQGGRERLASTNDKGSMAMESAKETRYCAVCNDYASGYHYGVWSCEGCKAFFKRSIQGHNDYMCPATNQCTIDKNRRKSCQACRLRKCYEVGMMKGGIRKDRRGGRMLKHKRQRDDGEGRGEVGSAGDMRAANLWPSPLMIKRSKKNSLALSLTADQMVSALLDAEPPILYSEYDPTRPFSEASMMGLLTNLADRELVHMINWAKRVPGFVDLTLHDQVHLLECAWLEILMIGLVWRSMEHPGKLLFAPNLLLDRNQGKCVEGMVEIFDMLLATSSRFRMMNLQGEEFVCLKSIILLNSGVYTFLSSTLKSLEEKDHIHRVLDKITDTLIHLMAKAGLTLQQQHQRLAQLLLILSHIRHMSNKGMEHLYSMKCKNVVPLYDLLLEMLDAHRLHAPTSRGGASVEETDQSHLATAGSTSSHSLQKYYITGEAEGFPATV

B1: SART1 (protein, UniProt O43290 1-800)
chain: MGSSKKHRGEKEAAGTTAAAGTGGATEQPPRHREHKKHKHRSGGSGGSGGERRKRSRERGGERGSGRRGAEAEARSSTHGRERSQAEPSERRVKREKRDDGYEAAASSKTSSGDASSLSIEETNKLRAKLGLKPLEVNAIKKEAGTKEEPVTADVINPMALRQREELREKLAAAKEKRLLNQKLGKIKTLGEDDPWLDDTAAWIERSRQLQKEKDLAEKRAKLLEEMDQEFGVSTLVEEEFGQRRQDLYSARDLQGLTVEHAIDSFREGETMILTLKDKGVLQEEEDVLVNVNLVDKERAEKNVELRKKKPDYLPYAEDESVDDLAQQKPRSILSKYDEELEGERPHSFRLEQGGTADGLRERELEEIRAKLRLQAQSLSTVGPRLASEYLTPEEMVTFKKTKRRVKKIRKKEKEVVVRADDLLPLGDQTQDGDFGSRLRGRGRRRVSEVEEEKEPVPQPLPSDDTRVENMDISDEEEGGAPPPGSPQVLEEDEAELELQKQLEKGRRLRQLQQLQQLRDSGEKVVEIVKKLESRQRGWEEDEDPERKGAIVFNATSEFCRTLGEIPTYGLAGNREEQEELMDFERDEERSANGGSESDGEENIGWSTVNLDEEKQQQDFSASSTTILDEEPIVNRGLAAALLLCQNKGLLETTVQKVARVKAPNKSLPSAVYCIEDKMAIDDKYSRREEYRGFTQDFKEKDGYKPDVKIEYVDETGRKLTPKEAFRQLSHRFHGKGSGKMKTERRMKKLDEEALLKKMSSSDTPLGTVALLQEKQKAQKTPYIVLSGSGKSMNANTITK
B2: SF1 (protein, UniProt Q15637 1-639)
chain: MATGANATPLDFPSKKRKRSRWNQDTMEQKTVIPGMPTVIPPGLTREQERAYIVQLQIEDLTRKLRTGDLGIPPNPEDRSPSPEPIYNSEGKRLNTREFRTRKKLEEERHNLITEMVALNPDFKPPADYKPPATRVSDKVMIPQDEYPEINFVGLLIGPRGNTLKNIEKECNAKIMIRGKGSVKEGKVGRKDGQMLPGEDEPLHALVTANTMENVKKAVEQIRNILKQGIETPEDQNDLRKMQLRELARLNGTLREDDNRILRPWQSSETRSITNTTVCTKCGGAGHIASDCKFQRPGDPQSAQDKARMDKEYLSLMAELGEAPVPASVGSTSGPATTPLASAPRPAAPANNPPPPSLMSTTQSRPPWMNSGPSESRPYHGMHGGGPGGPGGGPHSFPHPLPSLTGGHGGHPMQHNPNGPPPPWMQPPPPPMNQGPHPPGHHGPPPMDQYLGSTPVGSGVYRLHQGKGMMPPPPMGMMPPPPPPPSGQPPPPPSGPLPPWQQQQQQPPPPPPPSSSMASSTPLPWQQNTTTTTTSAGTGSIPPWQQQQAAAAASPGAPQMQGNPTMVPLPPGVQPPLPPGAPPPPPPPPPGSAGMMYAPPPPPPPPMDPSNFVTMMGMGVAGMPPFGMPPAPPPPPPQN
B3: Sfrs15 (protein, UniProt O95104 1-1147)
chain: MDAVNAFNQELFSLMDMKPPISRAKMILITKAAIKAIKLYKHVVQIVEKFIKKCKPEYKVPGLYVIDSIVRQSRHQFGTDKDVFGPRFSKNITATFQYLYLCPSEDKSKIVRVLNLWQKNGVFKIEIIQPLLDMAAGTSNAAPVAENVTNNEGSPPPPVKVSSEPPTQATPNSVPAVPQLPSSDAFAAVAQLFQTTQGQQLQQILQTFQQPPKPQSPALDNAVMAQVQAITAQLKTTPTQPSEQKAAFPPPEQKTAFDKKLLDRFDYDDEPEAVEESKKEDTTAVTTTAPAAAVPPAPTATVPAAAAPAAASPPPPQAPFGFPGDGMQQPAYTQHQNMDQFQPRMMGIQQDPMHHQVPLPPNGQMPGFGLLPTPPFPPMAQPVIPPTPPVQQPFQASFQAQNEPLTQKPHQQEMEVEQPCIQEVKRHMSDNRKSRSRSASRSPKRRRSRSGSRSRRSRHRRSRSRSRDRRRHSPRSRSQERRDREKERERRQKGLPQVKPETASVCSTTLWVGQLDKRTTQQDVASLLEEFGPIESINMIPPRGCAYIVMVHRQDAYRALQKLSRGNYKVNQKSIKIAWALNKGIKADYKQYWDVELGVTYIPWDKVKPEELESFCEGGMLDSDTLNPDWKGIPKKPENEVAQNGGAETSHTEPVSPIPKPLPVPVPPIPVPAPITVPPPQVPPHQPGPPVVGALQPPAFTPPLGIPPPGFGPGVPPPPPPPPFLRPGFNPMHLPPGFLPPGPPPPITPPVSIPPPHTPPISIPNSTIAGINEDTTKDLSIGNPIPTVVSGARGNAESGDSVKMYGSAVPPAAPTNLPTPPVTQPVSLLGTQGVAPGPVIGLQAPSTGLLGARPGLIPLQRPPGMPPPHLQRFPLMPPRPMPPHMMHRGPPPGPGGFAMPPPHGMKGPFPPHGPFVRPGGMPGLGGPGPGPGGPEDRDGRQQPPQQPQQQPQPQAPQQPQQQQQQQPPPSQQPPPTQQQPQQFRNDNRQQFNSGRDQERFGRRSFGNRVENDRERYGNRNDDRDNSNRDRREWGRRSPDRDRHRDLEERNRRSSGHRDRERDSRDRESRREKEEARGKEKPEVTDRAGGNKTVEPPISQVGNVDTASELEKGVSEAAVLKPSEELPAEATSSVEPEKDSGSAAEAPR
B4: SMC1A (protein, UniProt Q14683 1-1233)
chain: MGFLKLIEIENFKSYKGRQIIGPFQRFTAIIGPNGSGKSNLMDAISFVLGEKTSNLRVKTLRDLIHGAPVGKPAANRAFVSMVYSEEGAEDRTFARVIVGGSSEYKINNKVVQLHEYSEELEKLGILIKARNFLVFQGAVESIAMKNPKERTALFEEISRSGELAQEYDKRKKEMVKAEEDTQFNYHRKKNIAAERKEAKQEKEEADRYQRLKDEVVRAQVQLQLFKLYHNEVEIEKLNKELASKNKEIEKDKKRMDKVEDELKEKKKELGKMMREQQQIEKEIKEKDSELNQKRPQYIKAKENTSHKIKKLEAAKKSLQNAQKHYKKRKGDMDELEKEMLSVEKARQEFEERMEEESQSQGRDLTLEENQVKKYHRLKEEASKRAATLAQELEKFNRDQKADQDRLDLEERKKVETEAKIKQKLREIEENQKRIEKLEEYITTSKQSLEEQKKLEGELTEEVEMAKRRIDEINKELNQVMEQLGDARIDRQESSRQQRKAEIMESIKRLYPGSVYGRLIDLCQPTQKKYQIAVTKVLGKNMDAIIVDSEKTGRDCIQYIKEQRGEPETFLPLDYLEVKPTDEKLRELKGAKLVIDVIRYEPPHIKKALQYACGNALVCDNVEDARRIAFGGHQRHKTVALDGTLFQKSGVISGGASDLKAKARRWDEKAVDKLKEKKERLTEELKEQMKAKRKEAELRQVQSQAHGLQMRLKYSQSDLEQTKTRHLALNLQEKSKLESELANFGPRINDIKRIIQSREREMKDLKEKMNQVEDEVFEEFCREIGVRNIREFEEEKVKRQNEIAKKRLEFENQKTRLGIQLDFEKNQLKEDQDKVHMWEQTVKKDENEIEKLKKEEQRHMKIIDETMAQLQDLKNQHLAKKSEVNDKNHEMEEIRKKLGGANKEMTHLQKEVTAIETKLEQKRSDRHNLLQACKMQDIKLPLSKGTMDDISQEEGSSQGEDSVSGSQRISSIYAREALIEIDYGDLCEDLKDAQAEEEIKQEMNTLQQKLNEQQSVLQRIAAPNMKAMEKLESVRDKFQETSDEFEAARKRAKKAKQAFEQIKKERFDRFNACFESVATNIDEIYKALSRNSSAQAFLGPENPEEPYLDGINYNCVAPGKRFRPMDNLSGGEKTVAALALLFAIHSYKPAPFFVLDEIDAALDNTNIGKVANYIKEQSTCNFQAIVISLKEEFYTKAESLIGVYPEQGDCVISKVLTFDLTKYPDANPNPNEQ

These binders were tested against estrogen receptor alpha (ER) (human (endogenous in MCF-7 and ZR-75)) (UniProt P03372) (assay: affinity purification with mass spectrometry; anti-ER antibody (Santa Cruz sc-8002) on Dynabeads Protein G, 1.5 mg lysate of MCF-7 or ZR-75 cells overnight at 4°C; cells starved, vehicle or 10 µM ERX-11 for 2 hr, then 10 nM E2 for 2 hr; the named proteins are ER binders whose co-precipitation was disrupted by ERX-11).

binding, binds:
B1
B2
B3
B4
